The list shows a part of the results.
How the values were obtained:
Assay in all cases: log2 fold change, soluble protein after heating vs DMSO (PISA); higher = thermal stabilisation; K562 lysate, 10 uM; active = over 0.2 and 3.5 SD of the protein, either way, in both replicates (recomputed)
lapatinib = compound: CS(=O)(=O)CCNCc1ccc(-c2ccc3ncnc(Nc4ccc(OCc5cccc(F)c5)c(Cl)c4)c3c2)o1 [lapatinib]
Summary of the method: (§1)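 Values give the log-two fold change in thermal stability against solvent controls, from duplicates. Crude K562 extract at 1 mg/mL protein, made by dounce homogenisation in PBS pH 7.4 with 1 mM MgCl2, was treated with 10 μM compound for 30 min. After 3 min heating across 48°C-58°C, aliquots were pooled, adjusted to 0.5% NP-40 at 4°C and centrifuged at 21,000xg for 90 min. The supernatant was measured by TMTpro 16plex LC-MS/MS with channel sums equalised.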

The chains behind the UniProt entries cited, without tags or fusion partners. Where a name states a change or a piece, a line headed by the entry shows the natural chain unless it says otherwise.
UniProt Q05048: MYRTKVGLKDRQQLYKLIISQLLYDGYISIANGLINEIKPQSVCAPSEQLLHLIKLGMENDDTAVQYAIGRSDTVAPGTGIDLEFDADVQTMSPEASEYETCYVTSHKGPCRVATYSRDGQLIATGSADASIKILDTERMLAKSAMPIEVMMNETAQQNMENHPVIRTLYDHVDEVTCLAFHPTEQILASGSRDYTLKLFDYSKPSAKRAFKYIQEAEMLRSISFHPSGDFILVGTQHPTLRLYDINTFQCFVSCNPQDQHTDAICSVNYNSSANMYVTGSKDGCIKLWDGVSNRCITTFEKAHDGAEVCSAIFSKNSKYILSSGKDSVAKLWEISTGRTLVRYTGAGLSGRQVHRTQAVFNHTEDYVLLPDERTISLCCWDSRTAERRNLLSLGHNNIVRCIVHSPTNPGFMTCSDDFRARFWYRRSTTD
UniProt P48729: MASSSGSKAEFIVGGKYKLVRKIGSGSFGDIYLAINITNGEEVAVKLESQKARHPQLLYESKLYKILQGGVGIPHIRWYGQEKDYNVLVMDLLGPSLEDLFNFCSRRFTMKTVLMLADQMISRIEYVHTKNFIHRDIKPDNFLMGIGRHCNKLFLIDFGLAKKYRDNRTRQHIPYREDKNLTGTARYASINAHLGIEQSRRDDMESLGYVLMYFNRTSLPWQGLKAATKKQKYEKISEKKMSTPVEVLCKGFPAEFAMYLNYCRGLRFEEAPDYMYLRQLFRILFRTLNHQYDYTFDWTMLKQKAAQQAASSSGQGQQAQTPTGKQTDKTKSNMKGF
UniProt Q13619, whole entry, looked up: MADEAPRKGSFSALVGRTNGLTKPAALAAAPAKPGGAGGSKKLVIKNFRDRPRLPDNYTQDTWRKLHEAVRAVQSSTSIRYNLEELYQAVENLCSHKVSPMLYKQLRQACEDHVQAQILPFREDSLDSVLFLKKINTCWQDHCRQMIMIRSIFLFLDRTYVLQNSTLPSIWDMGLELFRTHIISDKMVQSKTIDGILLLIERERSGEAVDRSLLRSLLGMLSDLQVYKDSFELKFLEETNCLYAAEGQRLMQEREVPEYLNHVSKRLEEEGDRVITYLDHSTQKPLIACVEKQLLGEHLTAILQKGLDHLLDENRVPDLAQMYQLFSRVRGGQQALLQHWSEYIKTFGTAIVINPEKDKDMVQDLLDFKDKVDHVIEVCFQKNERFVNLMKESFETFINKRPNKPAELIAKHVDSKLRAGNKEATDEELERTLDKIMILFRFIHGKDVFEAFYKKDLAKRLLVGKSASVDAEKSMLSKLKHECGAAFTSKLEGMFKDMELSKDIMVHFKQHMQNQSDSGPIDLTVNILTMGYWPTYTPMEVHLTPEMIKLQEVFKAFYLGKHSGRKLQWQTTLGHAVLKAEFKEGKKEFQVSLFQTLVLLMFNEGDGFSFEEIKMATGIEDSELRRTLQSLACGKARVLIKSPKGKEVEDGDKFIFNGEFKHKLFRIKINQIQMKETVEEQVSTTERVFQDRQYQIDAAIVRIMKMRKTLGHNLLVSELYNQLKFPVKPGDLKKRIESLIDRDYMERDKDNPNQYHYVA
UniProt P16220: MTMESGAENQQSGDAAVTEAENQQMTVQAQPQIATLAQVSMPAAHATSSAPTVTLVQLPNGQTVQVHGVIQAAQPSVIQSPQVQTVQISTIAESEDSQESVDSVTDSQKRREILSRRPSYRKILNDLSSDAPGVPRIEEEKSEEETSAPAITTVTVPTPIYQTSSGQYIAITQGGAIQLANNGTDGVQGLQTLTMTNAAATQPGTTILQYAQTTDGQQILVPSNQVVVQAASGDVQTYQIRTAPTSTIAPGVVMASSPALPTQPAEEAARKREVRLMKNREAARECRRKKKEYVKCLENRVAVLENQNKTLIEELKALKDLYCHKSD
UniProt Q9P013: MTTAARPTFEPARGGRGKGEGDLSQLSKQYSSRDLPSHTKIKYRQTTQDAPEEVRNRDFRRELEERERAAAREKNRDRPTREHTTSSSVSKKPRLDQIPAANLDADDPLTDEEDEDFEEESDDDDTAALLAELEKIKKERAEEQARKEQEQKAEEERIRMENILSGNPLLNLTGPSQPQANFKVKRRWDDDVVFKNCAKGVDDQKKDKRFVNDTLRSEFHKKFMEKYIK
UniProt P19784, whole entry, looked up: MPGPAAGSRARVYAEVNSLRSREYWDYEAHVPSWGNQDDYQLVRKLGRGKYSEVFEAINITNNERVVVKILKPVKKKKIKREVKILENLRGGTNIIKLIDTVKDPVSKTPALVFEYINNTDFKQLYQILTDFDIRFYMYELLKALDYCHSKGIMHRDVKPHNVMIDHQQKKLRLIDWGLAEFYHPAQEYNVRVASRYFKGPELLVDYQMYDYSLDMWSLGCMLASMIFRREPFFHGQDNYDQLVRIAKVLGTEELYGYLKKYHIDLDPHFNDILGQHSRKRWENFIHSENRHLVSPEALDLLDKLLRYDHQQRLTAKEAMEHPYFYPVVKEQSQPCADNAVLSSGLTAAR
UniProt Q13620, whole entry, looked up: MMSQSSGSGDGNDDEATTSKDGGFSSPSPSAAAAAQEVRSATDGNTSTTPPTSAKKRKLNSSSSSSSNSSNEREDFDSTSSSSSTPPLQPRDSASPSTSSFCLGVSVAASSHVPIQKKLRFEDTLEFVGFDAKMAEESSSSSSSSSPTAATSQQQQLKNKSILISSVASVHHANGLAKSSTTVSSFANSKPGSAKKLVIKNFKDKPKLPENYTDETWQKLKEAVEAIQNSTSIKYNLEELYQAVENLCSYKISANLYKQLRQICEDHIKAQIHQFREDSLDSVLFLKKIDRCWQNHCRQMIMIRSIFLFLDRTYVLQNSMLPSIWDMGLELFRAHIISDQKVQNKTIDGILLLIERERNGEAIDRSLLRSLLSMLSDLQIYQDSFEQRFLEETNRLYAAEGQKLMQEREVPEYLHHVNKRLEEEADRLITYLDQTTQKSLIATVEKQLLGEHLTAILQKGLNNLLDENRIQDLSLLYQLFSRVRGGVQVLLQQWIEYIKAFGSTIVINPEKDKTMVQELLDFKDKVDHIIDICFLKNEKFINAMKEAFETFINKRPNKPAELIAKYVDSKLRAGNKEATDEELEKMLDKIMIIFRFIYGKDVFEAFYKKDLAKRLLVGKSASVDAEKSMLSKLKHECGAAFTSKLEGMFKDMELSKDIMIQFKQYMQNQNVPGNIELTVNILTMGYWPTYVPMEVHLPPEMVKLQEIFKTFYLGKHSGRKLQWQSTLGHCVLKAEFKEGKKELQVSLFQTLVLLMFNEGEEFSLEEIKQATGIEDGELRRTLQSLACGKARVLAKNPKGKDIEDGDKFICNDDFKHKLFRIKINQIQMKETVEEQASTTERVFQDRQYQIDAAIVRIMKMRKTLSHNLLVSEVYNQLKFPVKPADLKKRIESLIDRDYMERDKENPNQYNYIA
UniProt E9PJD7, whole entry, looked up: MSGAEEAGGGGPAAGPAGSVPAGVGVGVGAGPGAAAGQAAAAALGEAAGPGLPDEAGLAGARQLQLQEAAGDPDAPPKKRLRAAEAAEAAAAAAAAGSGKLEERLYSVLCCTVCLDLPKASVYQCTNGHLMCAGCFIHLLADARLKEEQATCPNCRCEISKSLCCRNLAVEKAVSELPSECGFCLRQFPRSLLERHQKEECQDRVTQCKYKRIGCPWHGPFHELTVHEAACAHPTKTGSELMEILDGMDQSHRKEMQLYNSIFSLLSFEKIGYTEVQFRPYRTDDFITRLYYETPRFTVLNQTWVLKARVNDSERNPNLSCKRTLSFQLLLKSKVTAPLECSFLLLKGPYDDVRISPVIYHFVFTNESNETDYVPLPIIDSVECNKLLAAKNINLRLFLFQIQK
UniProt Q69YN2: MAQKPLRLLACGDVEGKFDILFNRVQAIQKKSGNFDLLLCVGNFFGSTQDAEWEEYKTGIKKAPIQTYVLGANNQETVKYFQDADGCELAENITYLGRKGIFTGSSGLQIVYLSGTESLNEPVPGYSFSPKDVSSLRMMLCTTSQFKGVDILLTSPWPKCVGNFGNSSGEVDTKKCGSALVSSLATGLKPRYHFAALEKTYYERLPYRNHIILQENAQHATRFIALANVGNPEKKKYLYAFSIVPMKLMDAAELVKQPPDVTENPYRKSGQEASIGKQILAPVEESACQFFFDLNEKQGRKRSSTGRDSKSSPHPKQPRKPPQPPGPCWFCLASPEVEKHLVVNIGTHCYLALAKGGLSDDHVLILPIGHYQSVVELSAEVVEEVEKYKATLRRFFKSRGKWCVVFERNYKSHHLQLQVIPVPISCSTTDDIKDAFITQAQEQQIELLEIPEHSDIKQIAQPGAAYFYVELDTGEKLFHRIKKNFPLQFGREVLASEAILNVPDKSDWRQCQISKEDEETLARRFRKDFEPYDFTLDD
UniProt P09668: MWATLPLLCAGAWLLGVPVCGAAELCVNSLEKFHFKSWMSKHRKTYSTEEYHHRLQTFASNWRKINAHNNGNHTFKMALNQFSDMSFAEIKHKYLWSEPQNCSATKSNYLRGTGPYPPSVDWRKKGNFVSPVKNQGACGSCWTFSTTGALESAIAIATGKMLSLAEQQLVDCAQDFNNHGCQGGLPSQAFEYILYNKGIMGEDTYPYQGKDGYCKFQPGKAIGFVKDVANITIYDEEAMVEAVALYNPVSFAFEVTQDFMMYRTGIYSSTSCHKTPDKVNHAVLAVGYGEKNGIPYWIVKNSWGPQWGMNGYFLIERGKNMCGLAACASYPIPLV
UniProt P35221: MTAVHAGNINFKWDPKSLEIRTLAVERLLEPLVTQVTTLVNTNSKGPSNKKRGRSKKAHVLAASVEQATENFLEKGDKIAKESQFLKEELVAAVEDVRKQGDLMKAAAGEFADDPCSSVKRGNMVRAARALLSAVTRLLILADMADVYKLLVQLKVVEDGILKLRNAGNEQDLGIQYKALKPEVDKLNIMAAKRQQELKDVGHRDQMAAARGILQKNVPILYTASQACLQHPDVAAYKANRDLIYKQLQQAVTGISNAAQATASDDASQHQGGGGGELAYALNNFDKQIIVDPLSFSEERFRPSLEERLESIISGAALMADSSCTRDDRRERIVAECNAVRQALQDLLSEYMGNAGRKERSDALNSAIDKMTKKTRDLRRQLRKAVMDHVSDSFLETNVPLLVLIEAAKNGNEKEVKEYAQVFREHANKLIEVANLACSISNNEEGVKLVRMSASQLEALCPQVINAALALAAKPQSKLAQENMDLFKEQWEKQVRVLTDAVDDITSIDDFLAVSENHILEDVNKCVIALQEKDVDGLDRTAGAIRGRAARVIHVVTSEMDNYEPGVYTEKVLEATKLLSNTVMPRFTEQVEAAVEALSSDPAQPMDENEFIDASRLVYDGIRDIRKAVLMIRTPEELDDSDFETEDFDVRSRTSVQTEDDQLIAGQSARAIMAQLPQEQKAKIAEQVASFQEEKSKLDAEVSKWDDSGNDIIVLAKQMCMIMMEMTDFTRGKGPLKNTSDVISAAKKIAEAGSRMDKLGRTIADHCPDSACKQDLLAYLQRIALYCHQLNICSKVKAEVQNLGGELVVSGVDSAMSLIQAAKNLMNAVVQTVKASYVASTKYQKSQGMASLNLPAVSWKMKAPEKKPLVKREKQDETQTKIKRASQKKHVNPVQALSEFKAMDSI
UniProt O75718: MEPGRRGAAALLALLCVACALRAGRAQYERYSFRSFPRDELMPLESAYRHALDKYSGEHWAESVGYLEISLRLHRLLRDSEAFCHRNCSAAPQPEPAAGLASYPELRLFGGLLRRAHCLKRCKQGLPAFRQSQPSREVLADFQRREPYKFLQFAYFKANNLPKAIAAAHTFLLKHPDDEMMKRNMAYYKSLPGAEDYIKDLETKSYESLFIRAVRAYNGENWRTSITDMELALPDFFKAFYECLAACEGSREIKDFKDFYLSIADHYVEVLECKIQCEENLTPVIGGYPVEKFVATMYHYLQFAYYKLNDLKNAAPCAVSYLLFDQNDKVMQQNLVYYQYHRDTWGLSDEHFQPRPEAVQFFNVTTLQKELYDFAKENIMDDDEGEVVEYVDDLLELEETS
UniProt Q6UXH1: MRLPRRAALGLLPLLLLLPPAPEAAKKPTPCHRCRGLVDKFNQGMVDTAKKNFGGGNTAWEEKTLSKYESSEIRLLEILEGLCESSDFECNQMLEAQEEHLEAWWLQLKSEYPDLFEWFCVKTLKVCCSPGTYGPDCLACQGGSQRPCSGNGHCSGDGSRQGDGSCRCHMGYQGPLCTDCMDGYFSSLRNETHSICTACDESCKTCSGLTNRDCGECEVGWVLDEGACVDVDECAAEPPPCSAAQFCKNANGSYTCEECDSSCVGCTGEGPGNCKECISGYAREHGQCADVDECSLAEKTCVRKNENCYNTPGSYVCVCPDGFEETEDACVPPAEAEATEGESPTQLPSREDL
UniProt Q9H467: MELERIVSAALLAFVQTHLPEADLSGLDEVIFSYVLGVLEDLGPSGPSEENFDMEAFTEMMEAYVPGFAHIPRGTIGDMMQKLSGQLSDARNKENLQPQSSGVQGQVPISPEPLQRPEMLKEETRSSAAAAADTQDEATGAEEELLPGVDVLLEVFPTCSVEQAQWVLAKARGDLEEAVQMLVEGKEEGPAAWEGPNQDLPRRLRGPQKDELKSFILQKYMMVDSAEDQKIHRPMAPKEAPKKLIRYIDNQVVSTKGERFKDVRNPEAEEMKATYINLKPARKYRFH

pictilisib = compound: CS(=O)(=O)N1CCN(Cc2cc3nc(-c4cccc5[nH]ncc45)nc(N4CCOCC4)c3s2)CC1 [pictilisib]
Summary of the method: as §1

crizotinib = compound: C[C@@H](Oc1cc(-c2cnn(C3CCNCC3)c2)cnc1N)c1c(Cl)ccc(F)c1Cl [crizotinib]
Summary of the method: as §1

[1] = compound: C[C@H](C1=CC=C(C=C1)C(=O)NC2=C3C=CNC3=NC=C2)N
Summary of the method: as §1

duvelisib = compound: C[C@H](Nc1ncnc2nc[nH]c12)c1cc2cccc(Cl)c2c(=O)n1-c1ccccc1 [duvelisib]
Summary of the method: as §1

gandotinib = compound: Cc1cc(Nc2cc(CN3CCOCC3)c3nc(C)c(Cc4ccc(Cl)cc4F)n3n2)n[nH]1 [gandotinib]
Summary of the method: as §1

tozasertib = compound: Cc1cc(Nc2cc(N3CCN(C)CC3)nc(Sc3ccc(NC(=O)C4CC4)cc3)n2)n[nH]1 [tozasertib]
Summary of the method: as §1

doramapimod = compound: Cc1ccc(-n2nc(C(C)(C)C)cc2NC(=O)Nc2ccc(OCCN3CCOCC3)c3ccccc23)cc1 [doramapimod]
Summary of the method: as §1

bafetinib = compound: Cc1ccc(NC(=O)c2ccc(CN3CC[C@H](N(C)C)C3)c(C(F)(F)F)c2)cc1Nc1nccc(-c2cncnc2)n1 [bafetinib]
Summary of the method: as §1

[2] = compound: Cc1cccc(CC(=O)N2CCc3c2ccc(-c2cn(C)c4ncnc(N)c24)c3F)n1
Summary of the method: as §1

nilotinib = compound: Cc1cn(-c2cc(NC(=O)c3ccc(C)c(Nc4nccc(-c5cccnc5)n4)c3)cc(C(F)(F)F)c2)cn1 [nilotinib]
Summary of the method: as §1

[3] = compound: Cc1nc(Nc2n[nH]c3c2CN(C(=O)N[C@H](CN(C)C)c2ccccc2)C3(C)C)c2sccc2n1
Summary of the method: as §1

dasatinib = compound: Cc1nc(Nc2ncc(C(=O)Nc3c(C)cccc3Cl)s2)cc(N2CCN(CCO)CC2)n1 [dasatinib]
Summary of the method: as §1

[4] = compound: Cc1ncc(-c2ccnc(Nc3ccc(S(C)(=O)=O)cc3)n2)n1C(C)C
Summary of the method: as §1

[5] = compound: Cn1cc(-c2ccc3c(c2)CCN3C(=O)Cc2cccc(C(F)(F)F)c2)c2c(N)ncnc21
Summary of the method: as §1

quisinostat = compound: Cn1cc(CNCC2CCN(c3ncc(C(=O)NO)cn3)CC2)c2ccccc21 [quisinostat]
Summary of the method: as §1

tipifarnib = compound: Cn1cncc1[C@@](N)(c1ccc(Cl)cc1)c1ccc2c(c1)c(-c1cccc(Cl)c1)cc(=O)n2C [tipifarnib]
Summary of the method: as §1

[6] = compound: NC(=O)Nc1cc(-c2cccc(F)c2)sc1C(=O)N[C@H]1CCCNC1
Summary of the method: as §1

[7] = compound: NC(=O)c1cnc(N[C@@H]2CCCC[C@@H]2N)nc1Nc1cccc(-n2nccn2)c1
Summary of the method: as §1

[8] = compound: NC1(c2ccc(-c3nc4ccn5c(=O)[nH]nc5c4cc3-c3ccccc3)cc2)CCC1
Summary of the method: as §1

Target	log2 fold change (lapatinib)	log2 fold change (pictilisib)	log2 fold change (crizotinib)	log2 fold change [1]	log2 fold change (duvelisib)	log2 fold change (gandotinib)	log2 fold change (tozasertib)	log2 fold change (doramapimod)	log2 fold change (bafetinib)	log2 fold change [2]	log2 fold change (nilotinib)	log2 fold change [3]	log2 fold change (dasatinib)	log2 fold change [4]	log2 fold change [5]	log2 fold change (quisinostat)	log2 fold change (tipifarnib)	log2 fold change [6]	log2 fold change [7]	log2 fold change [8]
CSTF1 (UniProt Q05048)	inactive: -0.011	inactive: -0.002	inactive: -0.002	inactive: -0.033	inactive: 0.004	inactive: 0.023	inactive: 0.005	inactive: -0.039	inactive: -0.02	inactive: -0.022	inactive: -0.023	inactive: 0.009	inactive: 0.035	inactive: -0.028	inactive: 0.002	inactive: -0.005	inactive: 0.037	inactive: 0.035	inactive: -0.035	inactive: 0.019
CSNK1A1 (UniProt P48729)	inactive: -0.099	inactive: 0.084	inactive: -0.049	inactive: 0.084	inactive: -0.034	inactive: -0.077	inactive: -0.068	inactive: 0.027	inactive: 0	inactive: -0.01	inactive: -0.04	inactive: 0.045	inactive: 0.088	inactive: 0.123	inactive: -0.039	inactive: -0.04	inactive: -0.019	inactive: 0.197	inactive: 0.018	inactive: -0.07
CUL4A (UniProt Q13619)	inactive: -0.008	inactive: -0.023	inactive: -0.021	inactive: -0.029	inactive: -0.026	inactive: -0.019	inactive: -0.016	inactive: 0.018	inactive: -0.021	inactive: 0.036	inactive: -0.006	inactive: 0.002	inactive: -0.016	inactive: 0.01	inactive: -0.01	inactive: -0.031	inactive: 0.011	inactive: 0.005	inactive: -0.012	inactive: -0.005
CREB1 (UniProt P16220)	inactive: -0.018	inactive: 0.041	inactive: 0.063	inactive: 0.002	inactive: -0.036	inactive: -0.008	inactive: 0.068	inactive: 0.013	inactive: 0.033	inactive: -0.038	inactive: 0.033	inactive: 0.01	inactive: -0.02	inactive: 0.048	inactive: -0.003	inactive: 0.004	inactive: 0.048	inactive: -0.011	inactive: -0.021	inactive: 0.021
CWC15 (UniProt Q9P013)	inactive: -0.023	inactive: 0.024	inactive: 0.046	inactive: -0.01	inactive: 0.031	inactive: 0.028	inactive: 0.002	inactive: -0.039	inactive: -0.043	inactive: -0.003	inactive: -0.055	inactive: 0.047	inactive: 0.023	inactive: -0.032	inactive: -0.057	inactive: 0.075	inactive: -0.034	inactive: -0.008	inactive: 0.02	inactive: 0.053
CSNK2A2 (UniProt P19784)	inactive: -0.116	inactive: 0.057	inactive: -0.071	inactive: 0.099	inactive: -0.02	inactive: -0.1	inactive: -0.035	inactive: -0.015	inactive: 0.009	inactive: -0.041	inactive: -0.031	inactive: 0.195	inactive: -0.039	inactive: 0.254	inactive: -0.004	inactive: 0.001	inactive: -0.014	inactive: 0.094	inactive: 0.018	inactive: -0.003
CUL4B (UniProt Q13620)	inactive: -0.019	inactive: -0.019	inactive: -0.012	inactive: -0.125	inactive: 0.001	inactive: 0.032	inactive: -0.028	inactive: 0.022	inactive: -0.019	inactive: 0.074	inactive: -0.009	inactive: -0.004	inactive: -0.001	inactive: 0.009	inactive: -0.007	inactive: 0	inactive: 0	inactive: 0.001	inactive: 0.01	inactive: -0.022
CSK (UniProt P41240)	inactive: -0.022	inactive: -0.017	inactive: 0.259	inactive: -0.075	inactive: -0.026	inactive: 0.377	inactive: 0.098	inactive: -0.005	inactive: 0.41	inactive: 0	inactive: 0.144	inactive: 0.125	active: 0.578	inactive: 0.002	inactive: 0.102	inactive: -0.08	inactive: -0.041	active: 0.646	inactive: 0.071	inactive: -0.043
CYB5R3 isoform 3 (UniProt P00387)	inactive: 0.031	inactive: -0.021	inactive: -0.008	inactive: -0.013	inactive: -0.003	inactive: -0.035	inactive: 0.047	inactive: 0.062	inactive: -0.017	inactive: -0.026	inactive: -0.017	inactive: -0.006	inactive: -0.023	inactive: 0.027	inactive: -0.012	inactive: -0.061	inactive: -0.005	inactive: 0.026	inactive: -0.013	inactive: -0.006
CYHR1 (UniProt E9PJD7)	inactive: 0.005	inactive: 0.008	inactive: -0.143	inactive: 0.005	inactive: -0.039	inactive: -0.005	inactive: 0.035	inactive: -0.012	inactive: 0.052	inactive: -0.03	inactive: 0.008	inactive: 0.003	inactive: 0.073	inactive: 0.002	inactive: 0.032	inactive: 0.012	inactive: -0.022	inactive: 0.054	inactive: -0.027	inactive: -0.042
CWF19L1 (UniProt Q69YN2)	inactive: 0.004	inactive: -0.012	inactive: 0.026	inactive: 0.022	inactive: 0.045	inactive: -0.029	inactive: 0.042	inactive: 0.003	inactive: 0	inactive: -0.038	inactive: -0.004	inactive: 0.042	inactive: 0	inactive: -0.045	inactive: -0.027	inactive: 0.039	inactive: 0.037	inactive: 0	inactive: 0.007	inactive: 0.011
CTSH (UniProt P09668)	inactive: 0	inactive: -0.063	inactive: 0.041	inactive: -0.013	inactive: 0.003	inactive: 0.022	inactive: -0.035	inactive: -0.089	inactive: 0.147	inactive: -0.064	inactive: 0.022	inactive: 0.013	inactive: 0.046	inactive: 0.023	inactive: 0.004	inactive: -0.022	inactive: 0.001	inactive: -0.029	inactive: -0.008	inactive: -0.018
CTNNA1 (UniProt P35221)	inactive: -0.021	inactive: -0.007	inactive: -0.033	inactive: -0.039	inactive: 0.02	inactive: 0.064	inactive: 0	inactive: 0.015	inactive: -0.015	inactive: 0.019	inactive: -0.043	inactive: 0.006	inactive: 0.021	inactive: -0.001	inactive: -0.013	inactive: -0.076	inactive: -0.017	inactive: -0.003	inactive: -0.009	inactive: 0.005
CRTAP (UniProt O75718)	inactive: -0.011	inactive: -0.032	inactive: 0.071	inactive: 0.081	inactive: -0.019	inactive: -0.086	inactive: 0.016	inactive: -0.021	inactive: 0.138	inactive: -0.058	inactive: -0.009	inactive: -0.025	inactive: 0.015	inactive: -0.004	inactive: 0.052	inactive: 0.104	inactive: -0.077	inactive: -0.023	inactive: -0.008	inactive: 0.06
CRELD2 isoform 5 (UniProt Q6UXH1)	inactive: 0.019	inactive: -0.036	inactive: 0.121	inactive: -0.056	inactive: 0.03	inactive: 0.006	inactive: -0.146	inactive: 0.019	inactive: 0.116	inactive: 0.028	inactive: 0.126	inactive: -0.147	inactive: 0.069	inactive: 0.215	inactive: -0.017	inactive: 0	inactive: -0.096	inactive: -0.038	inactive: 0.015	inactive: 0.015
CUEDC2 (UniProt Q9H467)	inactive: 0.018	inactive: -0.119	inactive: 0.001	active: 0.528	inactive: -0.009	inactive: -0.026	inactive: -0.055	inactive: 0.022	inactive: -0.073	inactive: -0.082	inactive: -0.038	inactive: 0.055	inactive: 0.015	inactive: 0.028	inactive: 0.009	inactive: -0.046	inactive: 0.009	inactive: -0.012	inactive: -0.021	inactive: 0.016

2 records picked at random from those above, as already listed:
Target	log2 fold change (lapatinib)	log2 fold change (pictilisib)	log2 fold change (crizotinib)	log2 fold change [1]	log2 fold change (duvelisib)	log2 fold change (gandotinib)	log2 fold change (tozasertib)	log2 fold change (doramapimod)	log2 fold change (bafetinib)	log2 fold change [2]	log2 fold change (nilotinib)	log2 fold change [3]	log2 fold change (dasatinib)	log2 fold change [4]	log2 fold change [5]	log2 fold change (quisinostat)	log2 fold change (tipifarnib)	log2 fold change [6]	log2 fold change [7]	log2 fold change [8]
CYB5R3 isoform 3 (UniProt P00387)	inactive: 0.031	inactive: -0.021	inactive: -0.008	inactive: -0.013	inactive: -0.003	inactive: -0.035	inactive: 0.047	inactive: 0.062	inactive: -0.017	inactive: -0.026	inactive: -0.017	inactive: -0.006	inactive: -0.023	inactive: 0.027	inactive: -0.012	inactive: -0.061	inactive: -0.005	inactive: 0.026	inactive: -0.013	inactive: -0.006
CYHR1 (UniProt E9PJD7)	inactive: 0.005	inactive: 0.008	inactive: -0.143	inactive: 0.005	inactive: -0.039	inactive: -0.005	inactive: 0.035	inactive: -0.012	inactive: 0.052	inactive: -0.03	inactive: 0.008	inactive: 0.003	inactive: 0.073	inactive: 0.002	inactive: 0.032	inactive: 0.012	inactive: -0.022	inactive: 0.054	inactive: -0.027	inactive: -0.042

Reference: the supplement of paper PMC10849652
